Experimental findings from patent publication US9051349B2 (Alba Therapeutics Corp., priority 2007, dated 2015) are described below.

A short description of this data set: general procedure: solution-phase peptide synthesis. To be noted: coupling step, HCl salt.

“HCl.H-Gly-Gly-Val-Leu-Val-Gln-Pro-Gly-OH”: the step yield is listed as 80%.
